Counter-ions that a name gives are not always drawn. Some of the results follow. Single values are uncertain here, since repeats match poorly.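 The human kidney-derived cells carry a stably integrated construct of eight TEAD-binding elements driving luciferase, read by luminescence in a drug-repurposing library screen. A compound counts as a hit when its signal is more than five robust Z scores above the plate mean.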
System: HEK293A TEAD-LUC reporter
Experiment: TEAD-luciferase reporter activity (YAP activation), robust Z score vs plate; higher = stronger YAP/TEAD activation
Conditions: 24 h

SMILES	TEAD-luciferase reporter activity (compound concentration: 200 nM)	TEAD-luciferase reporter activity (compound concentration: 2 uM)	TEAD-luciferase reporter activity (compound concentration: 10 uM)
O=C(Cn1c(=O)sc2ccc(Cl)cc21)N1CCN(CCO)CC1 [tiaramide]	inactive: 2.95	inactive: -0.705	inactive: -0.544
CN1C(CSCC(F)(F)F)Nc2cc(Cl)c(S(N)(=O)=O)cc2S1(=O)=O (configuration not stated) [Polythiazide]	inactive: 0.902	inactive: 0.106	inactive: -1.42
CCOC(=O)c1ccc(OCCN2C[C@H](O)[C@@H](O)[C@H](O)[C@H]2CO)cc1	inactive: 2.45	inactive: 0.551	inactive: -0.386
CC(C)OC(=O)Nc1ccc2nc(-c3cscn3)[nH]c2c1 [Cambendazole]	inactive: 3.86		active: 5.06
OCCN1CCN(CCCN2c3ccccc3C=Cc3ccccc32)CC1 [Opipramol hydrochloride]	inactive: -0.178	inactive: -0.54	inactive: 0.37
O=S1(=O)CCN(CN2CCS(=O)(=O)NC2)CN1 [taurolidine]	inactive: -1.08	active: 5.2	inactive: -0.539
C[C@@H]1C[C@H]2[C@@H]3CCC4=CC(=O)C=C[C@]4(C)C3=CC[C@]2(C)[C@H]1C(=O)CN1CCN(c2cc(N3CCCC3)nc(N3CCCC3)n2)CC1	inactive: -0.811	inactive: 0.446	inactive: -0.865
[N-]=[N+]=Nc1c(F)c(F)c(-c2cn3nc(S(=O)CCNC(=O)CCCC[C@@H]4SCC5NC(=O)NC54)sc3n2)c(F)c1F (some centres not stated)	inactive: 0.514	inactive: 2.88	inactive: 0.947
COCC(O)Cn1ccnc1[N+](=O)[O-] (configuration not stated) [Misonidazole]	inactive: 0.723	inactive: 0.0795	inactive: 0.0506
O=C(N[C@H]1CCN(C(=O)c2cc(C(F)(F)F)cc(C(F)(F)F)c2)[C@H](Cc2ccc(Cl)cc2)C1)c1ccnc2ccccc12	inactive: -0.449	inactive: -0.427	inactive: 3.5
CCc1oc2ccccc2c1C(=O)c1ccc(OCC(=O)O)cc1	inactive: -0.653	inactive: -0.427	inactive: 0.111
Cc1ccc(C(=O)Nc2ccc(S(=O)(=O)O)c3cc(S(=O)(=O)O)cc(S(=O)(=O)O)c23)cc1NC(=O)c1cccc(NC(=O)Nc2cccc(C(=O)Nc3cc(C(=O)Nc4ccc(S(=O)(=O)O)c5cc(S(=O)(=O)O)cc(S(=O)(=O)O)c45)ccc3C)c2)c1 [suramin, NIH]	inactive: -1.57	inactive: -1.07	inactive: 0.116
COCC(=O)N1CCCN(c2nc3ncccc3o2)CC1	inactive: -0.458		inactive: 0.339
CCCCCCC(=O)OC[C@H]1O[C@H](O[C@H]2O[C@H](COC(=O)CCCCCC)[C@@H](O)[C@H](O)[C@H]2O)[C@H](O)[C@@H](O)[C@@H]1O	inactive: 1.83	inactive: -1.06	inactive: -0.608
COc1cc(NC(C)CCCNC2=C(C(C)=O)CCO2)c2ncccc2c1 (configuration not stated) [analog of CDRI-80-53]		inactive: -0.943	
COc1cc(NC(C)CCCNC2=C(C(C)=O)CCO2)c2ncccc2c1 (configuration not stated)	inactive: 1.12		inactive: 1.4
Cc1cc(-c2c3ccccc3c(Br)c3sc(C)c(C)c23)cc(C)c1O[C@H](Cc1ccccc1)C(=O)O [Ertiprotafib]	inactive: -1.4	inactive: -1.39	inactive: -0.623
O=C(c1ccc(Oc2ccc(F)cc2)nc1)N1CCCN(C2CCC2)CC1	inactive: 0.658	inactive: -0.425	inactive: -2.4
CC(=O)O[C@@H]1CC[C@@]2(C)[C@@H](CC[C@]3(C)[C@@H]2CC=C2[C@@H]4[C@@H](C)[C@H](C)CC[C@]4(C)CC[C@]23C)[C@@]1(C)C(=O)O [Acetyl-beta-boswellic acid]	inactive: -2.49	inactive: 0.286	inactive: 0.534
COc1ccc(-c2cc(CCCC(=O)N(C)O)sc2-c2ccc(OC)cc2)cc1	active: 5.23	inactive: -2.28	inactive: -1.53
CS(=O)(=O)c1ccc(NC(=O)Nc2ccccc2)cc1	inactive: -0.192	inactive: 0.165	inactive: -0.948
CNc1cc(-c2csc(N(C)C(=O)c3ccc(F)cc3)n2)ncn1	inactive: -0.225	inactive: 0.646	inactive: -0.489
Nc1nc(N)c2c(n1)NCCC(c1ccccc1)=N2	inactive: -1.27	inactive: 0.8	active: 15.1
FCOC(C(F)(F)F)C(F)(F)F [sevoflurane]	inactive: -1.19	inactive: 0.0579	inactive: -1.54
CC(C)c1ccc(N2N=C3CSCC=C3C(C#N)=C2N)cc1	inactive: 0.405	inactive: -1.17	inactive: 1.23
CN1CCC(C(=O)N2Cc3ccccc3CC3(CCCN3C)C2)CC1 (configuration not stated)	inactive: 1.29		inactive: -0.931

SMILES	TEAD-luciferase reporter activity (compound concentration: 200 nM)	TEAD-luciferase reporter activity (compound concentration: 2 uM)	TEAD-luciferase reporter activity (compound concentration: 10 uM)
CCCCOC(=O)NS(=O)(=O)c1sc(CC(C)C)cc1-c1ccc(Cn2ccnc2)cc1	inactive: -1.45	inactive: -0.364	inactive: 1.07
COc1cccc(-c2cc(F)ccc2[C@H]2Cc3nc(N)nc(C)c3C(=O)N2)n1	inactive: -2.07	inactive: -1.22	inactive: -3.53
CCC(=O)N1Cc2ccccc2CC2(CCCCN2CC2CCNC2)C1 (configuration not stated)	inactive: 2.32		inactive: -0.0658
Cc1cn(-c2cc(C)c3[nH]c(=O)ccc3c2)c(C)n1	inactive: -1.49	inactive: -1.2	inactive: 3.54
COc1ccc(CCN(C)CCCOc2ccc(S(=O)(=O)c3c(C(C)C)c4ccccc4n3C)cc2)cc1OC	inactive: -0.881	inactive: 2.32	inactive: -0.736
N#Cc1cc(O)c(O)c(C#N)c1/C=C/CC1CCCC1	inactive: 0.599	inactive: 0.0159	inactive: 2.37
c1ccc2c(CCC3CCNCC3)c[nH]c2c1 [indalpine]	inactive: -1.14		inactive: -1.11
COC1C(O)C(O)C(O)C(O)C1O [D-Pinitol]	inactive: -1.59	inactive: -0.385	inactive: 0.442
Cn1nnc(-c2ccc(-c3ccc(N4C[C@H](COP(=O)([O-])O)OC4=O)cc3F)cn2)n1 [Tedizolid phosphate sodium]	inactive: 1.11	inactive: -1.35	inactive: -0.653
CCC(/C=C/C(=O)N1CCc2ccccc21)NC(=O)C1(N)CCOCC1 (configuration not stated)	inactive: 0.555	inactive: -0.298	inactive: -0.181
CCCCCCCCCCCC(=O)c1c(O)cc(O)c(C2CC(c3ccc(O)cc3)Oc3cc(O)ccc32)c1O (configuration not stated)	inactive: -0.914	inactive: -0.0903	inactive: 2
OC(C1=CC(=C(c2ccccn2)c2ccccn2)C=C1)(c1ccccn1)c1ccccn1	inactive: 0.739	inactive: -0.425	inactive: 1.9
CC(C)Cc1ccc(C(C)C(=O)OCc2ccccn2)cc1 (configuration not stated) [ibuprofen piconol]	inactive: -1.29	inactive: -0.799	inactive: -0.41
C[C@H](NC(=O)c1c(C(F)F)nn(C)c1Oc1cccc(C(F)(F)F)c1)c1ccc(C(=O)O)cc1	inactive: -0.521	inactive: -1.73	inactive: 0.0944
CCC(=O)N(C)Cc1c(-c2ccc(Cl)cc2)nc2ccccn12	inactive: -0.728	inactive: -0.26	inactive: -0.954
CC(=O)O[C@]1(C(C)=O)CC[C@H]2[C@@H]3CCC4=CC(=O)CC[C@]4(C)[C@H]3CC[C@@]21C [17-Acetoxyprogesterone]	inactive: 4.3	inactive: 1.81	inactive: 0.7
CC1(C)CC[C@]2(C)CC[C@]3(C)C(=CC[C@@H]4[C@@]5(C)CC[C@@H](O)[C@](C)(C(=O)O)[C@@H]5CC[C@]43C)[C@@H]2C1 [Boswellic acids]		inactive: -0.139	
CC1(C)CC[C@]2(C)CC[C@]3(C)C(=CC[C@@H]4[C@@]5(C)CC[C@@H](O)[C@](C)(C(=O)O)[C@@H]5CC[C@]43C)[C@@H]2C1 [Boswellic acid]	inactive: -1.86		inactive: 0.388
CCCc1c(Cn2ccnc2-c2ncccc2F)ncn2nc(C)nc12 [adipiplon]	inactive: -0.502	inactive: 0.599	active: 5.37
O=C(Nc1ccccc1Br)N[C@@H]1CCN(c2ccc(C(F)(F)F)cn2)C1	inactive: -0.247	inactive: -1.32	inactive: -1.44
CCNC(=O)[C@@H]1CCCN1C(=O)[C@H](CCCNC(=N)N)NC(=O)[C@H](CC(C)C)NC(=O)[C@@H](Cc1cn(Cc2ccccc2)cn1)NC(=O)[C@H](Cc1ccc(O)cc1)NC(=O)[C@H](CO)NC(=O)[C@H](Cc1c[nH]c2ccccc12)NC(=O)[C@H](Cc1c[nH]cn1)NC(=O)[C@@H]1CCC(=O)N1 [histrelin]	inactive: -0.442	inactive: -1.15	inactive: -0.304
Cn1cc(-c2cnn3c(N)c(Br)c(C4CCCNC4)nc23)cn1 (configuration not stated)	inactive: 0.168	inactive: 0.588	inactive: -0.308
O=C(O)CCCC(=O)NCCc1c[nH]cn1 [Dicarbamine]	inactive: 0.567	inactive: 0.176	inactive: -0.685
COc1ccc2c(c1)Oc1ccc(C(=O)O)cc1N=C2C	inactive: 3.4	inactive: 0.135	inactive: 0.465
CN(C)CCn1cc(C(=O)N2CCC3(CC2)OCc2ccccc23)c2ccc(Cl)cc21	inactive: 0.837	inactive: 0.939	inactive: 3.75

Exported field by field: part of the list above
OC(C1=CC(=C(c2ccccn2)c2ccccn2)C=C1)(c1ccccn1)c1ccccn1
  TEAD-luciferase reporter activity (compound concentration: 200 nM): inactive: 0.739
  TEAD-luciferase reporter activity (compound concentration: 2 uM): inactive: -0.425
  TEAD-luciferase reporter activity (compound concentration: 10 uM): inactive: 1.9
CN(C)CCn1cc(C(=O)N2CCC3(CC2)OCc2ccccc23)c2ccc(Cl)cc21
  TEAD-luciferase reporter activity (compound concentration: 200 nM): inactive: 0.837
  TEAD-luciferase reporter activity (compound concentration: 2 uM): inactive: 0.939
  TEAD-luciferase reporter activity (compound concentration: 10 uM): inactive: 3.75
